In the supplement of paper PMC10849652:
The list shows a part of the results.

Chains of the proteins cited; added tags and fusions are not shown. Lines headed by an entry give the natural chain unless they say otherwise; changes in a name come on top.
UniProt Q16836: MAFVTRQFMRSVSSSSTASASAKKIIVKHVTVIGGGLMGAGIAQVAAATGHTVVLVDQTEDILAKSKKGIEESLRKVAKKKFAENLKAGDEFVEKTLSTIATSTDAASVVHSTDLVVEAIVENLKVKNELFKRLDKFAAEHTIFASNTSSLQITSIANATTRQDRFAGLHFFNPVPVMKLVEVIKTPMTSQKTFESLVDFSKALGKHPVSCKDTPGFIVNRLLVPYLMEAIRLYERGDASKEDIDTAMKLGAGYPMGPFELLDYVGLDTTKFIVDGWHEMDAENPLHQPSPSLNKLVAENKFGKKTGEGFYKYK
UniProt P78347: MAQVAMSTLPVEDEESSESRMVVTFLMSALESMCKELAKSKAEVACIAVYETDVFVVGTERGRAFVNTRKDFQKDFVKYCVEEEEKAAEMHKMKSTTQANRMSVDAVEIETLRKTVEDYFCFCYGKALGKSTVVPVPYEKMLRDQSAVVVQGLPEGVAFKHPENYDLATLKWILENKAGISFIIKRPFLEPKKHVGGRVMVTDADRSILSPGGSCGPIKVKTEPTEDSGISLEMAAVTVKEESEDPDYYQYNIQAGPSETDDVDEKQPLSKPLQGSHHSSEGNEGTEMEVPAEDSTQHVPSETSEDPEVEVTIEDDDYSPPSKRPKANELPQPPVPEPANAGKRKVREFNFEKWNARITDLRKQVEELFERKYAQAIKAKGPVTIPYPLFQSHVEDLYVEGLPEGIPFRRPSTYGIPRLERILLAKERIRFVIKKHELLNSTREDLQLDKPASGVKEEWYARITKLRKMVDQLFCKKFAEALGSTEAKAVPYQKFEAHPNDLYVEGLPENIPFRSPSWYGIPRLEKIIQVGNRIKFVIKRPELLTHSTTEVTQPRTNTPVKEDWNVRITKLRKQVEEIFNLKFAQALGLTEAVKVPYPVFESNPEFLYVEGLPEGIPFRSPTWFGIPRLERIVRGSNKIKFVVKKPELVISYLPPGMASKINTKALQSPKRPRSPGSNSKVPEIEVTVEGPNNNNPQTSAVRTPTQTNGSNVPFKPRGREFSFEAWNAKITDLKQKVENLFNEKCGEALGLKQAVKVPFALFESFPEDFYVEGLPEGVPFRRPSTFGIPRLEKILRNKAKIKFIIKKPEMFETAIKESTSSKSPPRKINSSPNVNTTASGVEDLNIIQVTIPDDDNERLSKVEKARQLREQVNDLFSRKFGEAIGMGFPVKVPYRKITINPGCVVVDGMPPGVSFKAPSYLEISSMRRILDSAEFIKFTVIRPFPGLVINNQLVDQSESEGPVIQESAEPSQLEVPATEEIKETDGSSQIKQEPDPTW
UniProt Q9UJ83: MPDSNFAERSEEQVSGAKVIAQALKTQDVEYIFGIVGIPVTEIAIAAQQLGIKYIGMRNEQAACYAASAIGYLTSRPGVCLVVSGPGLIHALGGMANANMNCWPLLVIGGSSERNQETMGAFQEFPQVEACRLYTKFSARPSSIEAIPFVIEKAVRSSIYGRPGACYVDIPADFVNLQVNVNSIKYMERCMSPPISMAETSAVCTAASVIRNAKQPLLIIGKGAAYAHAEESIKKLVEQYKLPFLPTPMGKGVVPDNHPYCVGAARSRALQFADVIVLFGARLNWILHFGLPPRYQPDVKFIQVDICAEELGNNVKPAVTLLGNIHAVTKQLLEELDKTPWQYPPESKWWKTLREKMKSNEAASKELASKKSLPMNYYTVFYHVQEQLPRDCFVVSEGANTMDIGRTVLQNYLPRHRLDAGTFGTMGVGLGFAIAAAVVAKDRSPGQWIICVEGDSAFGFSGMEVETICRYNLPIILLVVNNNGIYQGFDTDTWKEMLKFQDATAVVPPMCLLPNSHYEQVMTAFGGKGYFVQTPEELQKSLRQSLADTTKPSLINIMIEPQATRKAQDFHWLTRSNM
UniProt P02008: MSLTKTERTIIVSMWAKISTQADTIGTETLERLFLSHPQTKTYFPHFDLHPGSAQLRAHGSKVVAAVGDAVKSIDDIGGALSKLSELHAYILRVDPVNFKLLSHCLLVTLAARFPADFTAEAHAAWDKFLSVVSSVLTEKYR
UniProt Q5T447: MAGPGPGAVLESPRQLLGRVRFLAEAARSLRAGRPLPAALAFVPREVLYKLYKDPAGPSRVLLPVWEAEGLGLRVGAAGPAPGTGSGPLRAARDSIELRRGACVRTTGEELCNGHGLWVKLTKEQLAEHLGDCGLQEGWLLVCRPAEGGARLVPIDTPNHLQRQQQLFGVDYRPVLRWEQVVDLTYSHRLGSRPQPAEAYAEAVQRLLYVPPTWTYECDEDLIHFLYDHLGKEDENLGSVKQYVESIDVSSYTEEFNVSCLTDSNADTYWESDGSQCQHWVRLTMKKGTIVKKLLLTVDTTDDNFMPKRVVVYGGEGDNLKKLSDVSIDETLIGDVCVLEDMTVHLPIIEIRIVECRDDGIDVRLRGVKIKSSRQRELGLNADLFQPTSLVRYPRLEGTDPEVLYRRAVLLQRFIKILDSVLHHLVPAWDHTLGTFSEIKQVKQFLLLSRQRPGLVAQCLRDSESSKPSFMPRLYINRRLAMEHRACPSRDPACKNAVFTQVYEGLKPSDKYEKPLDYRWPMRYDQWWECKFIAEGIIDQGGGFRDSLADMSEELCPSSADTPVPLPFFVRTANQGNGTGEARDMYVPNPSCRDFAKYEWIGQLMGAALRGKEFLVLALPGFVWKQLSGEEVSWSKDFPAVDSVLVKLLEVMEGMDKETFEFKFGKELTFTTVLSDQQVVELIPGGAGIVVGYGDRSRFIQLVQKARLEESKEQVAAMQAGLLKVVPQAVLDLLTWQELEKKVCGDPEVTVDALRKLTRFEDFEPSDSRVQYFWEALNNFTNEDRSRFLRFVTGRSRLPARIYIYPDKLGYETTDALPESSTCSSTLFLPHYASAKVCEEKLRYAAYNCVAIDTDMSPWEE
UniProt P69905, whole entry, looked up: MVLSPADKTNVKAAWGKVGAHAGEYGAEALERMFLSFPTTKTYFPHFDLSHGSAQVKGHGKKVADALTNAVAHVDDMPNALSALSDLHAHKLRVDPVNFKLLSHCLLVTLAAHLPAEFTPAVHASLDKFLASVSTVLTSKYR
UniProt P28161: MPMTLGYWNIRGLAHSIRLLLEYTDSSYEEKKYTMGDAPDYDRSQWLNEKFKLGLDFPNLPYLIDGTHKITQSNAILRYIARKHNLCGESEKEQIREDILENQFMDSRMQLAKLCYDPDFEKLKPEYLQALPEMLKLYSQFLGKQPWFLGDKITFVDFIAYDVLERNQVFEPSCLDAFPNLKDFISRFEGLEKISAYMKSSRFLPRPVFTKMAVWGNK
UniProt Q9Y3E1: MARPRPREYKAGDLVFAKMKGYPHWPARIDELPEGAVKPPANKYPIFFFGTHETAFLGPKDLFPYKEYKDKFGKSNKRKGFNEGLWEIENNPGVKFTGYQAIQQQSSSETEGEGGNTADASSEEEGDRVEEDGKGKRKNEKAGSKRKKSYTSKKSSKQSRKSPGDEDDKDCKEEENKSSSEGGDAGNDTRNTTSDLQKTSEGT
UniProt P78417: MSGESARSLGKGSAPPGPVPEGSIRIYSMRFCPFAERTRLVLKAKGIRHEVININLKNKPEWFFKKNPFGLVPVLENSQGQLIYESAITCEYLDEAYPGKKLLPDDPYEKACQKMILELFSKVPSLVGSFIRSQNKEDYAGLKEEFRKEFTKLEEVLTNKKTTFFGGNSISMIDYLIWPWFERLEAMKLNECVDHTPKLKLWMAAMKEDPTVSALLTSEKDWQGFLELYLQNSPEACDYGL
UniProt P00390: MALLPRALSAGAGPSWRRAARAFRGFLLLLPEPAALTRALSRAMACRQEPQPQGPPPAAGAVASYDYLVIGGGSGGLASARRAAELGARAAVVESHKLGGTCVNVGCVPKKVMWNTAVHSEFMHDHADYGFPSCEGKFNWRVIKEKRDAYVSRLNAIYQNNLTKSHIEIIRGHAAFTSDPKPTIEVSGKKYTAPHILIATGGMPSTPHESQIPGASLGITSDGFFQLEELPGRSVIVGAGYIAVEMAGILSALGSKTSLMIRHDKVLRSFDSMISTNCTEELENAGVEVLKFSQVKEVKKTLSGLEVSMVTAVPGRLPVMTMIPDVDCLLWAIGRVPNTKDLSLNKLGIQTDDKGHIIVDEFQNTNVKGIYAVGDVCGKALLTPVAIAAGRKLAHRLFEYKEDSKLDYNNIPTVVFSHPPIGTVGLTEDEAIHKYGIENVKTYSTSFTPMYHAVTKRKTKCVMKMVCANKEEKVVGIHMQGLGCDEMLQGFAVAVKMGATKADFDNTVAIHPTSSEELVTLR
UniProt Q9Y450, whole entry, looked up: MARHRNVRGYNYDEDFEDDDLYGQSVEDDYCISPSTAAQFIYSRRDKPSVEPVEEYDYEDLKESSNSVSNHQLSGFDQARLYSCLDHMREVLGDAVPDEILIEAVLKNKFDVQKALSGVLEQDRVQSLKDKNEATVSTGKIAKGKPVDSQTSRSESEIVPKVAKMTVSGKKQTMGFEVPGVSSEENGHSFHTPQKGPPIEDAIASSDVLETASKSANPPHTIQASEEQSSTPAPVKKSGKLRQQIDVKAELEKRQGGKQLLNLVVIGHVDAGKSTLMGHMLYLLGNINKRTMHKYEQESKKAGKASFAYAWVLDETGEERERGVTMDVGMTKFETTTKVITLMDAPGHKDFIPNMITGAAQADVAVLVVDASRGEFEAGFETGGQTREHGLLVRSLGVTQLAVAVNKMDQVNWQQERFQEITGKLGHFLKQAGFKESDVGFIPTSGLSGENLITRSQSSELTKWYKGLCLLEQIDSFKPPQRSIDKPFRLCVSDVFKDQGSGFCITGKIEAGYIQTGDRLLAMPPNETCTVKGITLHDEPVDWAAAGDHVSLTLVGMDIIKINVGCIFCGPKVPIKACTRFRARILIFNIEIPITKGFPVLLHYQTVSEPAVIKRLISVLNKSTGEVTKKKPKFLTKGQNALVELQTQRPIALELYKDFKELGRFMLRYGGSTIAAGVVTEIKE
UniProt P52655, whole entry, looked up: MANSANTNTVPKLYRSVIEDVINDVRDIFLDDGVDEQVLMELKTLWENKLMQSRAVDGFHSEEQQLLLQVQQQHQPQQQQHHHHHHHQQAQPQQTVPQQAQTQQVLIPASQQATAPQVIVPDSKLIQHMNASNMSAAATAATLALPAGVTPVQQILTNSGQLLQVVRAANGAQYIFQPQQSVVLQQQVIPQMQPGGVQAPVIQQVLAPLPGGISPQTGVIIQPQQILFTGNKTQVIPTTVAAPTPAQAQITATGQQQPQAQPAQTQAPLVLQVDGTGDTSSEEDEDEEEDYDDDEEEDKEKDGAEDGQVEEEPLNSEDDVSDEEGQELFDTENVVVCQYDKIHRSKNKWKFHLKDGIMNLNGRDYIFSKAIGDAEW
UniProt P15170, whole entry, looked up: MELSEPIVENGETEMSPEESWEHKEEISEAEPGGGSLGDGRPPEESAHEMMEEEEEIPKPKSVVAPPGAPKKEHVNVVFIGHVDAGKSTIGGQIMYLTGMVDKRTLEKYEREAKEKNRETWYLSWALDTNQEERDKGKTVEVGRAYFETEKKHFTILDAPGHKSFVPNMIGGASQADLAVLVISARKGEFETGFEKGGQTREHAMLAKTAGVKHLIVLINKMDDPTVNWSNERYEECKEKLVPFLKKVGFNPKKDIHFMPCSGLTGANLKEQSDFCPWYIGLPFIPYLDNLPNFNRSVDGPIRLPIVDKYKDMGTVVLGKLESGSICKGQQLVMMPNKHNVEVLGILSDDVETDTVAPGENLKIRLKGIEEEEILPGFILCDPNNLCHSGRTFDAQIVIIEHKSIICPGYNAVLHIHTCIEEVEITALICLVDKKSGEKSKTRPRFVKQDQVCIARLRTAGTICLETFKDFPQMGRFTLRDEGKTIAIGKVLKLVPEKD
UniProt P52657, whole entry, looked up: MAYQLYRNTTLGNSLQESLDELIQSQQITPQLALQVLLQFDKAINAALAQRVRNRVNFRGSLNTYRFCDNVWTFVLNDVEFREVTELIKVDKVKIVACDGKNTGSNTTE
UniProt P07686: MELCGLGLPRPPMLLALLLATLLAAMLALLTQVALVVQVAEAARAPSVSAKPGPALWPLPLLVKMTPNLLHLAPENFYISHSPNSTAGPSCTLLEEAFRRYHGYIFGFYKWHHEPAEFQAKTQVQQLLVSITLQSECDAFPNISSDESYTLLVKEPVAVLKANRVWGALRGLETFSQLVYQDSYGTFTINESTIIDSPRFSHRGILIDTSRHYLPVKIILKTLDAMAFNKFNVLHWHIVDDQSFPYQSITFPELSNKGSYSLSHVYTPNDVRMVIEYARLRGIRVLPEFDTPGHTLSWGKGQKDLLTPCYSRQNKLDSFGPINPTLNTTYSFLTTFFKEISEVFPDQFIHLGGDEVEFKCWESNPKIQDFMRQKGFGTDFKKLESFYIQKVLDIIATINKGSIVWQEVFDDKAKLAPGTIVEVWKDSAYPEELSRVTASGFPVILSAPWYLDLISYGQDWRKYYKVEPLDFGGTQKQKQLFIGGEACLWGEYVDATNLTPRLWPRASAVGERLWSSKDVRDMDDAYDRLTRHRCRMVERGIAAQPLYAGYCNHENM

Legend:
Experiment in all cases: log2 fold change, soluble protein after heating vs DMSO (PISA); higher = thermal stabilisation; K562 cells, 10 uM, 30 min; active = over 0.2 and 3.5 SD of the protein, either way, in both replicates (recomputed)
[1] = compound: CC1=C(C=C(C=C1)NC(=O)C2=CC(=CC=C2)C(C)(C)C#N)NC3=CC4=C(C=C3)N=CN(C4=O)C
Procedure, shortened: (§1)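 Soluble protein was defined as the supernatant after 21,000xg for 90 min. It came from K562 cells at 2×10^6 cells/mL given 10 μM compound for 30 min, heated in aliquots for 3 min across 48°C-58°C, pooled, and extracted in PBS with 0.5% NP-40 at 4°C, and was quantified by TMTpro 16plex LC-MS/MS with equalised channel sums. Thermal stability against control samples, from duplicates, is reported as log2 fold change.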

[2] = compound: CC1=C(C=C(C=C1)NC(=O)C2=CC(=CC=C2)N(C)C)NC(=O)C3=CC=C(C=C3)O
Procedure, shortened: as §1

[3] = compound: CC1=CC=C(C=C1)SC2=C3C=C(SC3=CN=C2)C(=O)N
Procedure, shortened: as §1

[4] = compound: CC1=NC(=CC=C1)C2=C(N=C(N2)C(C)(C)C)C3=CC4=NC=CN=C4C=C3
Procedure, shortened: as §1

[5] = compound: CCCCN(Cc1ccc(C(=O)NO)cc1)C(=O)Nc1ccccc1 [Nexturastat A]
Procedure, shortened: as §1

[6] = compound: CCCS(=O)(=O)Nc1ccc(F)c(C(=O)c2c[nH]c3ncc(-c4ccc(Cl)cc4)cc23)c1F [vemurafenib]
Procedure, shortened: as §1

[7] = compound: CCCS(=O)(=O)Nc1ccc(F)c(C(=O)c2c[nH]c3ncc(Cl)cc23)c1F
Procedure, shortened: as §1

[8] = compound: CCCc1cc(C)[nH]c(=O)c1CNC(=O)c1cc(-c2ccnc(N3CCN(C)CC3)c2)cc2c1cnn2C(C)C
Procedure, shortened: as §1

[9] = compound: CCN(CC)Cc1ccc2cc(COC(=O)Nc3ccc(C(=O)NO)cc3)ccc2c1 [givinostat]
Procedure, shortened: as §1

[10] = compound: CCN(CCCOc1ccc2c(Nc3cc(CC(=O)Nc4cccc(F)c4)[nH]n3)ncnc2c1)CCOP(=O)(O)O [barasertib]
Procedure, shortened: as §1

[11] = compound: CC[C@@H]1C(=O)N(C)c2cnc(Nc3ccc(C(=O)NC4CCN(C)CC4)cc3OC)nc2N1C1CCCC1
Procedure, shortened: as §1

[12] = compound: CC[C@@H]1C(=O)N(C)c2cnc(Nc3ccc(C(=O)N[C@H]4CC[C@H](N5CCN(CC6CC6)CC5)CC4)cc3OC)nc2N1C(C)C [volasertib]
Procedure, shortened: as §1

[13] = compound: CC[C@H](C)N1C=C(C2=C(C=C(C=C21)C3=CN=C(C=C3)N4CCNCC4)C(=O)NCC5=C(C=C(NC5=O)C)C)C
Procedure, shortened: as §1

[14] = compound: CC[C@H](C)[C@@H](C(=O)N[C@@H]([C@@H](C)O)C(=O)N[C@@H](CC(C)C)C(=O)[C@]1(CO1)C)NC(=O)[C@H]([C@@H](C)CC)N(C)C(=O)C [epoxomicin]
Procedure, shortened: as §1

[15] = compound: CCn1c(C(=O)N(C2CC2)C2CC2)cc2c3c(ncn3C)c(Nc3cc(C)n(C)n3)nc21
Procedure, shortened: as §1

[16] = compound: CCn1cc(-c2ccnc3[nH]c(-c4cccc(CN(C)C)c4)cc23)c(-c2ccc(NC(=O)N(C)C)cc2)n1
Procedure, shortened: as §1

[17] = compound: CN(C)CC(=O)Nc1ccc2[nH]c(=O)c3ccccc3c2c1
Procedure, shortened: as §1

[18] = compound: CN(CCOC1=CC=C(C=C1)C[C@H]2C(=O)NC(=O)S2)C3=CC=CC=N3 (racemic) [rosiglitazone]
Procedure, shortened: as §1

[19] = compound: CN1C2=C(C3=C1C(=O)N(N=C3)CC4=CC(=CC=C4)N)SC(=C2)S(=O)C
Procedure, shortened: as §1

[20] = compound: CN1CCC(CNc2ccc3ncc(-c4cccc(OC(F)(F)F)c4)n3n2)CC1
Procedure, shortened: as §1

Target	log2 fold change [1]	log2 fold change [2]	log2 fold change [3]	log2 fold change [4]	log2 fold change [5]	log2 fold change [6]	log2 fold change [7]	log2 fold change [8]	log2 fold change [9]	log2 fold change [10]	log2 fold change [11]	log2 fold change [12]	log2 fold change [13]	log2 fold change [14]	log2 fold change [15]	log2 fold change [16]	log2 fold change [17]	log2 fold change [18]	log2 fold change [19]	log2 fold change [20]
HADH isoform 2 (UniProt Q16836)	inactive: 0.034	inactive: -0.016	inactive: -0.046	inactive: 0.007	inactive: -0.065	inactive: 0.011	inactive: -0.043	inactive: 0.003	inactive: -0.033	inactive: 0.035	inactive: 0.001	inactive: 0.068	inactive: 0.021	inactive: 0.07	inactive: 0.023	inactive: -0.06	inactive: -0.021	inactive: -0.009	inactive: -0.111	inactive: -0.02
GTF2I (UniProt P78347)	inactive: 0.013	inactive: -0.067	inactive: 0.017	inactive: -0.059	inactive: 0.184	inactive: -0.097	inactive: 0.091	inactive: -0.077	inactive: 0.119	inactive: 0.163	inactive: -0.126	inactive: -0.109	inactive: 0.057	inactive: 0.028	inactive: -0.064	inactive: -0.035	inactive: 0.049	inactive: 0.073	inactive: 0.026	inactive: 0.089
HADHA (UniProt P40939)	inactive: 0.307	inactive: -0.203	inactive: 0	inactive: -0.022	inactive: -0.1	inactive: -0.017	inactive: -0.006	inactive: 0.1	inactive: 0.044	inactive: -0.013	inactive: 0.03	inactive: 0.469	inactive: 0.107	inactive: 0.055		inactive: -0.233	inactive: 0.023		inactive: -0.053	inactive: -0.334
HACL1 (UniProt Q9UJ83)	inactive: 0.041	inactive: 0	inactive: 0	inactive: -0.024	inactive: -0.119	inactive: 0.03	inactive: -0.003	inactive: -0.008	inactive: -0.011	inactive: -0.011	inactive: 0.049	inactive: 0.017	inactive: -0.029	inactive: 0.074	inactive: 0.017	inactive: -0.007	inactive: -0.024	inactive: -0.006	inactive: -0.026	inactive: 0.079
HBZ (UniProt P02008)	inactive: 0.01	inactive: -0.074	inactive: 0.025	inactive: 0.042	inactive: -0.013	inactive: -0.028	inactive: -0.006	inactive: -0.008	inactive: -0.052	inactive: 0.044	inactive: 0.03	inactive: -0.065	inactive: -0.026	active: 0.288		inactive: -0.021	inactive: 0.019		inactive: -0.012	inactive: 0.016
HECTD3 (UniProt Q5T447)	inactive: -0.027	inactive: 0.046	inactive: -0.089	inactive: 0.005	inactive: 0.167	inactive: -0.1	inactive: -0.144	inactive: 0.018	inactive: 0.038	inactive: -0.06	inactive: -0.08	inactive: 0.027	inactive: -0.004	inactive: 0.006	inactive: 0.022		inactive: 0.021	inactive: 0.007	inactive: 0.03	
HBA1 (UniProt P69905)	inactive: 0.021	inactive: -0.068	inactive: 0.071	inactive: 0.018	inactive: 0.015	inactive: 0.137	inactive: 0.037	inactive: -0.038	inactive: -0.061	inactive: 0.072	inactive: 0.049	inactive: -0.059	inactive: -0.038	inactive: 0.316		inactive: -0.076	inactive: 0.012		inactive: -0.044	inactive: 0.153
GSTM2 (UniProt P28161)	inactive: -0.018	inactive: 0.007	inactive: -0.041	inactive: 0.036	inactive: 0.017	inactive: 0.013	inactive: -0.001	inactive: 0.101	inactive: -0.023	inactive: 0.019	inactive: 0.059	inactive: 0.039	inactive: 0.041	inactive: 0.113	inactive: 0.021	inactive: -0.119	inactive: 0.038	inactive: 0.008		inactive: -0.081
HDGFL3 (UniProt Q9Y3E1)	inactive: -0.033	inactive: -0.02	inactive: 0.015	inactive: 0.014	inactive: -0.009	inactive: -0.03	inactive: -0.012	inactive: -0.06	inactive: -0.009	inactive: 0.027	inactive: 0.015	inactive: 0.04	inactive: 0.008	inactive: -0.027	inactive: 0.052	inactive: 0.036	inactive: -0.029	inactive: 0.054	inactive: -0.05	inactive: -0.037
GSTO1 (UniProt P78417)	inactive: -0.031	inactive: 0.002	inactive: 0.03	inactive: 0.03	inactive: -0.121	inactive: 0.02	inactive: 0.017	inactive: 0.15	inactive: -0.043	inactive: 0.016	inactive: 0.005	inactive: 0.08	inactive: 0.009	inactive: 0.013		inactive: -0.052	inactive: -0.007		inactive: -0.082	inactive: 0.084
GSR (UniProt P00390)	inactive: -0.011	inactive: 0.022	inactive: 0.016	inactive: 0.007	inactive: -0.073	inactive: -0.027	inactive: 0.02	inactive: -0.026	active: -0.253	inactive: -0.03	inactive: 0.04	inactive: 0.034	inactive: -0.038	inactive: 0.001		inactive: -0.008	inactive: -0.018		inactive: -0.071	inactive: -0.02
HBS1L (UniProt Q9Y450)	inactive: 0.034	inactive: -0.014	inactive: -0.01	inactive: 0.05	inactive: -0.028	inactive: -0.007	inactive: 0.013	inactive: 0	inactive: 0.029	inactive: 0.043	inactive: 0.007	inactive: -0.057	inactive: 0.026	inactive: 0.02	inactive: -0.006	inactive: -0.032	inactive: -0.006	inactive: 0.032	inactive: -0.035	inactive: -0.024
GTF2A1 (UniProt P52655)	inactive: -0.086	inactive: -0.05	inactive: -0.023	inactive: -0.006	inactive: 0.077	inactive: 0.005	inactive: -0.057	inactive: -0.011	inactive: -0.01	inactive: 0.021	inactive: -0.012	inactive: 0.061	inactive: -0.051	inactive: 0.201		inactive: 0.035	inactive: -0.006		inactive: -0.018	inactive: -0.051
GSPT1 isoform 3 (UniProt P15170)	inactive: 0.056	inactive: -0.001	inactive: -0.014	inactive: -0.002	inactive: -0.036	inactive: -0.008	inactive: 0	inactive: -0.064	inactive: -0.043	inactive: 0.003	inactive: -0.002	inactive: 0.064	inactive: -0.014	inactive: 0.031	inactive: 0.015	inactive: -0.048	inactive: 0.013	inactive: 0.016	inactive: -0.081	inactive: -0.022
GTF2A2 (UniProt P52657)	inactive: 0.009	inactive: -0.029	inactive: 0.052	inactive: 0.03	inactive: -0.091	inactive: -0.083	inactive: -0.017	inactive: -0.053	inactive: -0.044	inactive: 0.007	inactive: 0.053	inactive: 0.097	inactive: -0.07	inactive: 0.036		inactive: 0.025	inactive: -0.03		inactive: -0.046	inactive: -0.031
HEXB (UniProt P07686)	inactive: 0	inactive: 0.029	inactive: 0.028	inactive: 0.022	inactive: -0.078	inactive: -0.003	inactive: -0.001	inactive: -0.019	inactive: -0.016	inactive: -0.015	active: -0.426	active: -0.396	inactive: -0.013	inactive: -0.006		inactive: 0.019	inactive: 0		inactive: -0.047	active: -0.563

Some of the entries so far, bar-delimited:
Target | log2 fold change [1] | log2 fold change [2] | log2 fold change [3] | log2 fold change [4] | log2 fold change [5] | log2 fold change [6] | log2 fold change [7] | log2 fold change [8] | log2 fold change [9] | log2 fold change [10] | log2 fold change [11] | log2 fold change [12] | log2 fold change [13] | log2 fold change [14] | log2 fold change [15] | log2 fold change [16] | log2 fold change [17] | log2 fold change [18] | log2 fold change [19] | log2 fold change [20]
GTF2A1 (UniProt P52655) | inactive: -0.086 | inactive: -0.05 | inactive: -0.023 | inactive: -0.006 | inactive: 0.077 | inactive: 0.005 | inactive: -0.057 | inactive: -0.011 | inactive: -0.01 | inactive: 0.021 | inactive: -0.012 | inactive: 0.061 | inactive: -0.051 | inactive: 0.201 |  | inactive: 0.035 | inactive: -0.006 |  | inactive: -0.018 | inactive: -0.051
GSPT1 isoform 3 (UniProt P15170) | inactive: 0.056 | inactive: -0.001 | inactive: -0.014 | inactive: -0.002 | inactive: -0.036 | inactive: -0.008 | inactive: 0 | inactive: -0.064 | inactive: -0.043 | inactive: 0.003 | inactive: -0.002 | inactive: 0.064 | inactive: -0.014 | inactive: 0.031 | inactive: 0.015 | inactive: -0.048 | inactive: 0.013 | inactive: 0.016 | inactive: -0.081 | inactive: -0.022
